Values of other authors in publication PMC3947653 (Peptides, 2013).

Test system: normal volunteers
Details: cited from earlier work

Structure (SMILES): NS(=O)(=O)c1cc(C(=O)O)c(NCc2ccco2)cc1Cl [furosemide]
- tolerability of alkaline formulation, subcutaneous route: tolerated well
